Experimental data from PubChem BioAssay (EPA / NIEHS).
The shares of active, inactive and inconclusive entries below differ from those in the screen. Potencies beside an inconclusive call are fits to weak or partial responses and may not hold up. Activity calls are given as the source filed them. The calls were made as follows: active = hit-call score of the fitted dose curve at least 0.9, where 1 is the maximum; inconclusive = response in the unintended direction; inactive = score below 0.9.

Amino acid sequences for entries named in this document (tags omitted). A change or cut given only in a name is not applied to a line headed by its entry.
UniProt P29074: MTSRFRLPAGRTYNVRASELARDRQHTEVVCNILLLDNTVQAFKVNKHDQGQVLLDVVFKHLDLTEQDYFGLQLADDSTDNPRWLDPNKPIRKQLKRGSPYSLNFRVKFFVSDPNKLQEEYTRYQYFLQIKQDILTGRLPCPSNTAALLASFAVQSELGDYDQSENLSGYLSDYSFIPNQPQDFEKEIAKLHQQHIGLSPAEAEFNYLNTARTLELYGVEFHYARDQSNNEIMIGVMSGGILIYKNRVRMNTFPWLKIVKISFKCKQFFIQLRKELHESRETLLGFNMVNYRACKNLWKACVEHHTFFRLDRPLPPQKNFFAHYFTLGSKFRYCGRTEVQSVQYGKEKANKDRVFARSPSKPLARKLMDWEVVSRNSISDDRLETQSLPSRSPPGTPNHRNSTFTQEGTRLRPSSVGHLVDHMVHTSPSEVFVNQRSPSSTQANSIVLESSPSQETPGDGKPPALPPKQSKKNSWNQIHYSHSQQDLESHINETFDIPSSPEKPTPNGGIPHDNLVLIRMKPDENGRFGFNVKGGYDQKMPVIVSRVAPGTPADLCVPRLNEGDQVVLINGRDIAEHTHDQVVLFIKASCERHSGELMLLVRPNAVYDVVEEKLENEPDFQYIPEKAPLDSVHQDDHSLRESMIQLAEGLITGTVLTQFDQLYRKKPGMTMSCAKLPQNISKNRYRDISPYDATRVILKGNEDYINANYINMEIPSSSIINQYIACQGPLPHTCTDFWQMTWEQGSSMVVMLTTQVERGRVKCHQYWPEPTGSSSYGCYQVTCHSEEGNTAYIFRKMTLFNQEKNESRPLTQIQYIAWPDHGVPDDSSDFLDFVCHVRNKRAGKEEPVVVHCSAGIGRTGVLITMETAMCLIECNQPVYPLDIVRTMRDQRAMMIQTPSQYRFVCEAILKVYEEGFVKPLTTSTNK

What follows are compounds tested against human Protein Tyrosine Phosphatase Non-receptor Type 4 (PTPN4), PTPN4 (gene 5775) (UniProt P29074) (assay: NVS_ENZ_hPTPN4: NovaScreen (NVS) Enzymatic Assay for human Protein Tyrosine Phosphatase Non-receptor Type 4 (PTPN4) (AID 2283208)).
Method in brief: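 Cell-free assay of PTPN4 expressed in Sf9 cells, using a fluorescent substrate with product separated by mobility shift; read 1.33 h after dosing. Single-point screen at 25 uM, then concentration-response up to 50 uM. Loss of signal relative to DMSO.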

Q: Which AC50 does the source give for `CCOC(=O)COc1cc(-n2ncc(C(F)(F)F)c(C)c2=O)c(F)cc1Cl` here?
A: inconclusive: 93.6 nM

Q: For `O=C(O)C1(C(=O)Nc2ccc(Cl)cc2Cl)CC1`, which AC50 is on record?
A: active: 3230 nM

Q: For `COc1nc(C)nc(NC(=O)NS(=O)(=O)c2ccccc2OCCCl)n1`, which outcome is on record?
A: inactive

Q: For `Cc1cc(CCN2CCN(c3nsc4ccccc34)CC2)cc2c1NC(=O)CC2(C)C`, which AC50 is on record?
A: inconclusive: 25000 nM

Q: For `Clc1cc(Cl)c2c(c1)N=C1CCCCCN1C2`, which AC50 is on record?
A: inconclusive: 262 nM
